{"source": "PubChem BioAssay AID540276", "about": "(National Center for Advancing Translational Sciences (NCATS), 2011)", "note": "Several values for one entry are separate records, joined by “and”; a condition that tells them apart may be missing. Equal entries are not always repeated. About 5,400 (1.8%) of roughly 300,000 compounds were called active. This list was built around the results that the source calls inconclusive (neither active nor inactive); the mix of calls is not that of the screen. Calls come from the whole dose curve; tested in HEK293 cells. A potency beside an inconclusive call is a rough fit, not a confirmed value. % is set by controls: 0 for no effect and ±100 for the full control effect; potency is the fitted concentration of half-maximal effect.", "data": [{"assay": "qHTS for inhibitors of binding or entry into cells for Marburg Virus", "conditions": "Marburg virus pseudotyped entry inhibition, cell reporter; activity change, negative = inhibition: at 37.8 µM (top of the series) unless noted", "values": [{"smiles": "COc1ccc(NS(=O)(=O)c2cc(NC(=O)CC3CCCC3)ccc2N2CCOCC2)cc1", "Potency": "inconclusive: 11.2 µM [inhibitor, partial curve]"}, {"smiles": "O=C(/C=C/c1ccc(F)cc1)NC(=S)Nc1ccccc1C(=O)NC1CCCCC1", "Potency": "inconclusive: 8.91 µM [inhibitor, partial curve, poor fit]"}, {"smiles": "COc1ccccc1CN1CC(C(=O)NCCN2CCOC2=O)CCC1=O", "note": "(stereo not drawn)", "Potency": "inconclusive: 35.5 µM [activator, single point]"}, {"smiles": "CCNC(=O)NC(=O)CSc1ccc(S(=O)(=O)N(C)C2CCCCC2)cn1", "Potency": "inconclusive: 11.2 µM [inhibitor, single point]"}, {"smiles": "COc1ccc(C(=O)Nc2ccc3c(c2)C(=O)N(C)C3=O)cc1OC", "Potency": "inconclusive: 35.5 µM [activator, single point]"}, {"smiles": "COc1cccc([C@@H]2[C@@H](C)CC[C@@H]3C(=O)NC[C@H](O)CN32)c1", "activity change, negative = inhibition": "inactive: -11% [at 14.2 µM]"}, {"smiles": "Cc1ccc(-c2csc3nc(SCC(=O)N(C)C)n(Cc4ccccc4)c(=O)c23)cc1", "Potency": "inconclusive: 35.5 µM [inhibitor, single point]"}, {"smiles": "N#CC1=C(SCc2ccccc2)NC(=O)CC1c1ccccc1", "note": "(stereo not drawn)", "Potency": "inconclusive: 5.62 µM [inhibitor, single point]"}, {"smiles": "COc1ccccc1NC(=S)N(CCCN1CCOCC1)Cc1cn(C)c2ccccc12", "Potency": "inconclusive: 35.5 µM [inhibitor, single point]"}, {"smiles": "CCCOc1cccc(OCC(=O)Nc2nc3ccccc3[nH]2)c1", "activity change, negative = inhibition": "inactive: 1.34%"}, {"smiles": "CCOC(=O)c1c(NC(=S)NCCc2ccccc2)sc2c1CC(C(C)C)OC2", "note": "(stereo not drawn)", "Potency": "inconclusive: 35.5 µM [inhibitor, single point]"}, {"smiles": "Cc1ccc(N(CN2CCCC2=O)C(=O)c2ccccc2)cc1", "Potency": "inconclusive: 0.282 µM [inhibitor, full curve, poor fit]"}, {"smiles": "Cc1nn(Cc2ccc(Cl)cc2)c(C)c1NC(=O)c1cc(C(C)C)on1", "Potency": "inconclusive: 15.8 µM [inhibitor, single point]"}, {"smiles": "COc1ccc(NC(=O)CSc2nc3ccsc3c(=O)n2CCCCCC(=O)O)cc1", "activity change, negative = inhibition": "inactive: 20.1% [at 46.1 µM]"}, {"smiles": "CCCN(CCC)C(=O)c1c(NC(=O)CC)sc2c1CCCCC2", "Potency": "inconclusive: 18.3 µM [inhibitor, partial curve, poor fit]"}, {"smiles": "O=C(NCCSc1c(-c2ccc(Br)cc2)[nH]c2ccccc12)c1ccc(S(=O)(=O)N2CCOCC2)cc1", "Potency": "inconclusive: 8.91 µM [inhibitor, partial curve]"}, {"smiles": "FC(F)(F)c1cccc(CN2CCSCC2)c1", "Potency": "inconclusive: 12.6 µM [inhibitor, single point]"}, {"smiles": "COc1ccc(-c2ccnc(SCC(=O)c3ccc(Cl)cc3)n2)cc1", "Potency": "inconclusive: 0.562 µM [inhibitor, full curve, poor fit]"}, {"smiles": "CCOCCCNC(=O)c1ccc(N2CCOCC2)c(NS(=O)(=O)c2ccc(OC)cc2)c1", "activity change, negative = inhibition": "inactive: -0.163%"}, {"smiles": "Nc1ccccc1C(=O)OCC(=O)N1CCc2ccccc21", "Potency": "inconclusive: 0.631 µM [activator, single point]"}, {"smiles": "O=c1cc(-c2ccccc2Cl)oc2cc(O)cc(O)c12", "Potency": "inconclusive: 8.2 µM [activator, single point]"}, {"smiles": "Cc1ccc(NC2=CC(=O)C(=O)c3ccccc32)cc1", "Potency": "inconclusive: 2.59 µM [activator, single point]"}, {"smiles": "O=C(CSCc1cccc(Cl)c1)Nc1ccccc1-c1ccccc1", "Potency": "inconclusive: 3.16 µM [activator, single point]"}, {"smiles": "CCOCCCNC(=O)c1cc2sc(Cl)cc2n1CC", "Potency": "inconclusive: 13 µM [inhibitor, single point]"}, {"smiles": "O=C(N/N=C/c1ccccc1)c1ccco1", "Potency": "inconclusive: 0.112 µM [activator, full curve, poor fit]"}, {"smiles": "Fc1ccccc1Cn1nnc2c(-n3ccnc3)ncnc21", "Potency": "inconclusive: 7.08 µM [inhibitor, full curve, poor fit]"}, {"smiles": "COC(=O)c1c(NS(=O)(=O)c2cccs2)sc2c1CCCC2", "activity change, negative = inhibition": "inactive: -0.878%"}, {"smiles": "Cc1[nH]c2ccc(C(=O)OCC(=O)NC3(C#N)CCCCC3)cc2c1C", "Potency": "inconclusive: 6.31 µM [activator, single point]"}, {"smiles": "O=C1C[C@H](NCc2ccc3c(c2)OCO3)C(=O)N1Cc1ccc2c(c1)OCO2", "activity change, negative = inhibition": "inactive: 25.6%"}, {"smiles": "CCOc1ccccc1NC(=O)Nn1cnnc1", "activity change, negative = inhibition": "inactive: -1.07% [at 46.1 µM]"}, {"smiles": "COc1ccc(-c2[nH]ncc2/C=N\\NS(=O)(=O)c2ccc(Cl)cc2)cc1", "activity change, negative = inhibition": "inactive: 4.79%"}, {"smiles": "COC(=O)c1c(-c2cccs2)csc1NC(=O)c1cc(OC)cc(OC)c1", "Potency": "inconclusive: 3.16 µM [inhibitor, single point]"}, {"smiles": "c1ccn2c(c1)nc1c2nc2ccccn21", "Potency": "inconclusive: 20.6 µM [activator, single point]"}, {"smiles": "CCCc1ccc(OCc2ccc(C(=O)NN)o2)c(OC)c1", "Potency": "inconclusive: 1.58 µM [activator, partial curve, poor fit]"}, {"smiles": "CCN(CC)c1nc(C)c2c(c1C#N)CC(C)(C)OC2", "Potency": "inconclusive: 2.51 µM [activator, partial curve, poor fit]"}, {"smiles": "N/C(=N\\OC(=O)Cc1ccccc1[N+](=O)[O-])c1ccccn1", "Potency": "inconclusive: 35.5 µM [inhibitor, single point]"}, {"smiles": "COC(=O)c1sccc1NC(=O)c1ccccc1", "Potency": "inconclusive: 35.5 µM [inhibitor, single point]"}, {"smiles": "Cc1[nH]n2c(=O)cc(C(C)C)nc2c1-c1ccccc1", "Potency": "inconclusive: 8.91 µM [inhibitor, partial curve, poor fit]"}, {"smiles": "O=C(CSc1ncnc2scc(-c3ccc(F)cc3)c12)c1ccc2c(c1)OCCO2", "Potency": "inconclusive: 0.355 µM [inhibitor, full curve, poor fit]"}, {"smiles": "O=C(CSc1nnnn1-c1ccc2c(c1)OCCO2)OC1CCCCC1", "activity change, negative = inhibition": "inactive: 14.8%"}, {"smiles": "Cc1ccc(-c2nc3cccnc3s2)cc1NC(=O)c1ccco1", "Potency": "inconclusive: 14.6 µM [activator, single point]"}, {"smiles": "CC1CCC(NC(=O)C2(C)Cc3ccccc3C(=O)N2Cc2ccccc2Cl)CC1", "note": "(stereo not drawn)", "activity change, negative = inhibition": "inactive: -8.02% [at 46.1 µM]"}, {"smiles": "Cc1noc(NS(=O)(=O)c2ccc(N/C=C\\C(=O)c3ccc(Br)cc3)cc2)c1C", "activity change, negative = inhibition": "inactive: -0.0054%"}, {"smiles": "Cc1ccc(/C=C/C(=O)c2c(C)nc3ccccn23)cc1", "Potency": "inconclusive: 29.1 µM [inhibitor, single point]"}, {"smiles": "CCOC(=O)c1c(NC(=O)COC(=O)c2nc(Cl)ccc2Cl)sc2c1CCC2", "activity change, negative = inhibition": "inactive: -12.5%"}, {"smiles": "CC(Sc1nnc(-c2ccco2)n1-c1ccccc1)C(=O)NCC1CCCO1", "note": "(stereo not drawn)", "Potency": "inconclusive: 20 µM [inhibitor, single point]"}, {"smiles": "CN1c2ccccc2Oc2c(c(=O)n(C)c(=O)n2C)C1c1cccc([N+](=O)[O-])c1", "note": "(stereo not drawn)", "Potency": "inconclusive: 6.31 µM [inhibitor, single point]"}, {"smiles": "CCCC1O[C@@H]2C[C@H]3[C@@H]4CCC5=CC(=O)C=C[C@]5(C)[C@H]4[C@@H](O)C[C@]3(C)[C@]2(C(=O)CO)O1", "note": "(stereo partly drawn)", "Potency": "active: 10.3 µM and active: 9.2 µM"}, {"smiles": "Cc1ccc(N(C(=O)c2snc(C(N)=O)c2N)C(CC(C)C)C(=O)NC2CCCC2)cc1", "note": "(stereo not drawn)", "Potency": "inconclusive: 32.6 µM [inhibitor, partial curve, poor fit]"}, {"smiles": "COc1cc(C(=O)NC2CCN(C)CC2)ccc1Nc1ncc2c(n1)N(CCc1ccccc1)CCC(=O)N2C", "activity change, negative = inhibition": "inactive: 0.839%"}, {"smiles": "Cc1cc(C)c2oc(C(=O)Nc3c(C(=O)c4ccc(F)cc4)oc4ccccc34)cc(=O)c2c1", "Potency": "inconclusive: 14.1 µM [activator, partial curve, poor fit]"}, {"smiles": "CCc1ccc(CNC(=O)Cc2ccc(NC(=O)C3=C(C)OCCS3)cc2)cc1", "Potency": "inconclusive: 1.12 µM [inhibitor, full curve, poor fit]"}, {"smiles": "Cc1cccc(OCc2ccc(-c3nc(C#N)c(N4CCN(c5ccccc5)CC4)o3)o2)c1", "activity change, negative = inhibition": "inactive: 31.8% [at 46.1 µM]"}, {"smiles": "Cn1cccc1/C=N/NC(N)=S", "activity change, negative = inhibition": "inactive: -4.9% [at 46.1 µM]"}, {"smiles": "CCc1cccc(C)c1Nc1c(-c2ccc(N(C)C)cc2)nc2ncccn12", "Potency": "inconclusive: 15.8 µM [inhibitor, single point]"}, {"smiles": "O=C(Nc1ccc(N2CCOCC2)cc1)c1cccc(S(=O)(=O)N2CCC(Cc3ccccc3)CC2)c1", "Potency": "inconclusive: 6.31 µM [inhibitor, single point]"}, {"smiles": "CC(OC(=O)c1ccc(Br)o1)C(=O)NCC1CCCCC1", "note": "(stereo not drawn)", "Potency": "inconclusive: 0.631 µM [activator, partial curve]"}, {"smiles": "c1ccc(-c2ncnc3ccccc23)cc1", "activity change, negative = inhibition": "inactive: 30.6%"}, {"smiles": "Cc1c(C(=O)N/N=C/c2ccc(N3CCOCC3)cc2)nc2ccccn12", "activity change, negative = inhibition": "inactive: 1.5% [at 46.1 µM]"}, {"smiles": "O=C(NCC1COc2ccccc2O1)c1ccc(Cl)cc1", "note": "(stereo not drawn)", "activity change, negative = inhibition": "inactive: -7.04%"}, {"smiles": "CNS(=O)(=O)c1cccc(C(=O)NCC2(N3CCOCC3)CCCCC2)c1", "activity change, negative = inhibition": "inactive: 4.36% [at 46.1 µM]"}, {"smiles": "Cc1cc(C(=O)Nc2ccccc2C)n(-c2ccccc2)n1", "activity change, negative = inhibition": "inactive: -1.69%"}, {"smiles": "NCCC1CCCC(CCN)N1", "note": "(stereo not drawn)", "Potency": "inconclusive: 0.158 µM [inhibitor, full curve, poor fit]"}, {"smiles": "O=C(Nc1ccccc1N1CCN(C(=O)c2ccc(Cl)cc2)CC1)c1cc2ccccc2o1", "Potency": "inconclusive: 12.6 µM [inhibitor, partial curve, poor fit]"}, {"smiles": "CCc1ccc2[nH]c(=O)c(CN(CCN(C)C)C(=O)Nc3ccccc3)cc2c1", "Potency": "inconclusive: 28.2 µM [inhibitor, single point]"}, {"smiles": "Cc1ccc(-c2c[n+]3c(n2-c2ccccc2)CCC3)cc1", "Potency": "inconclusive: 11.2 µM [inhibitor, single point]"}, {"smiles": "COc1cc(C2Nc3cccc4cccc(c34)N2)cc(OC)c1O", "Potency": "inconclusive: 4.11 µM [inhibitor, full curve, poor fit]"}, {"smiles": "CCC(=NC1CC1)c1c(O)n(C2CCCCC2)c(=O)[nH]c1=O", "activity change, negative = inhibition": "inactive: 6.09%"}]}]}
